PubChem BioAssay AID1259405 – NCATS | 2018
This is a random part of about 50,000 reagents tested. Of all reagents, about 4,000 (8%) are marked active. 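Mouse siRNA library applied to hamster cells; one well for each siRNA.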 The numbers tell different reagents against one gene apart.

Screen: 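Silenced genes that increase secreted GFP made by CHO cells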 (primary screen)
Cells: Chinese hamster CHO-K1 ovary cells with stable secreted eGFP expression
Reagents: single siRNA against mouse genes, 0.8 pmol siRNA per well (2 µl of 400 nM stock)
Time to read-out: 3 days
Measurement: 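Per-well intracellular GFP measured by laser scanning cytometry, plus viability from ATP luminescence, each relative to plate median of non-targeting control wells, in %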
Scale: GFP, % of control: higher = more GFP per well, higher productivity; viability (ATP), % of control: higher = more viable cells (more ATP)
Active means: 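Called active when intracellular GFP, relative to negative control, is at or above 120%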

gene,siRNA no.,"GFP, % of control","viability (ATP), % of control",outcome
Cyrib (GeneID 223601),1,77.8,106,inactive
Cyrib (GeneID 223601),2,144,92.1,active
Cyrib (GeneID 223601),3,101,79.4,inactive
Crim1 (GeneID 50766),1,108,150,inactive
Crim1 (GeneID 50766),2,173,110,active
Cct8 (GeneID 12469),1,41.7,30.3,inactive
Cct8 (GeneID 12469),2,90.8,83.9,inactive
Cct8 (GeneID 12469),3,57.2,50,inactive
Ybx2 (GeneID 53422),1,80.7,100,inactive
Ybx2 (GeneID 53422),2,57.9,70.7,inactive
Ybx2 (GeneID 53422),3,114,94.8,inactive
2410137M14Rik (GeneID 76797),1,49.4,62.9,inactive
2410137M14Rik (GeneID 76797),2,82,89.4,inactive
2410137M14Rik (GeneID 76797),3,90.5,65,inactive
Syf2 (GeneID 68592),1,59.7,59.4,inactive
Syf2 (GeneID 68592),2,91.3,95.9,inactive
Syf2 (GeneID 68592),3,24.1,22.2,inactive
Vmn1r212 (GeneID 171275),1,50.2,37.8,inactive
Vmn1r212 (GeneID 171275),2,76.1,69.2,inactive
Vmn1r212 (GeneID 171275),3,80.4,98.6,inactive
Atp8a1 (GeneID 11980),1,127,82.9,active
Atp8a1 (GeneID 11980),2,80.4,65.4,inactive
Atp8a1 (GeneID 11980),3,107,105,inactive
Rfpl4 (GeneID 192658),1,80.4,69.3,inactive
Rfpl4 (GeneID 192658),2,61.6,56.5,inactive
Rfpl4 (GeneID 192658),3,69.6,90.5,inactive
Auh (GeneID 11992),1,61.5,79.5,inactive
Auh (GeneID 11992),2,67.4,49,inactive
Auh (GeneID 11992),3,85.9,98.9,inactive
Nyap1 (GeneID 243300),1,82.2,91.9,inactive
Nyap1 (GeneID 243300),2,69.5,94.3,inactive
Nyap1 (GeneID 243300),3,106,134,inactive
Lrrc14 (GeneID 223664),1,97,102,inactive
Lrrc14 (GeneID 223664),2,71.5,85.3,inactive
Lrrc14 (GeneID 223664),3,75.6,83,inactive
Gpr143 (GeneID 18241),1,106,64.8,inactive
Gpr143 (GeneID 18241),2,91.7,88.8,inactive
Abhd11 (GeneID 68758),1,125,87.3,active
Abhd11 (GeneID 68758),2,60,70.4,inactive
Abhd11 (GeneID 68758),3,79.2,72.6,inactive
Or5d18 (GeneID 117004),1,56.5,56.9,inactive
Or5d18 (GeneID 117004),2,102,81.6,inactive
Or5d18 (GeneID 117004),3,51.3,57.2,inactive
Ppt2 (GeneID 54397),1,89.1,80.1,inactive
Ppt2 (GeneID 54397),2,54.1,75.7,inactive
Ppt2 (GeneID 54397),3,49.8,50.3,inactive
Mphosph8 (GeneID 75339),1,108,102,inactive
Mphosph8 (GeneID 75339),2,62.8,49.2,inactive
Mphosph8 (GeneID 75339),3,64.9,70,inactive
Mesp2 (GeneID 17293),1,66.8,72.9,inactive
Mesp2 (GeneID 17293),2,124,88.1,active
Mesp2 (GeneID 17293),3,105,77.3,inactive
Mphosph10 (GeneID 67973),1,69.3,60.4,inactive
Mphosph10 (GeneID 67973),2,101,82.8,inactive
Mphosph10 (GeneID 67973),3,32,15.2,inactive
AI661453 (GeneID 224833),1,62.1,87.3,inactive
AI661453 (GeneID 224833),2,93.9,88.1,inactive
AI661453 (GeneID 224833),3,46.8,72.5,inactive

Targets above whose gene name begins with O or o:
gene,siRNA no.,"GFP, % of control","viability (ATP), % of control",outcome
Or5d18 (GeneID 117004),1,56.5,56.9,inactive
Or5d18 (GeneID 117004),2,102,81.6,inactive
Or5d18 (GeneID 117004),3,51.3,57.2,inactive
